Test results from the supplement of paper PMC10849652.
The other results are listed elsewhere or left out.

The chains behind the UniProt entries cited, without tags or fusion partners. Where a name states a change or a piece, a line headed by the entry shows the natural chain unless it says otherwise.
UniProt Q9UK45: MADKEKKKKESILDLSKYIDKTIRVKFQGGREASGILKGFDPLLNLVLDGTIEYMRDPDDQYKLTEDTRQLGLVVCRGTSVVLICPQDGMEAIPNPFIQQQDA
UniProt Q8ND56: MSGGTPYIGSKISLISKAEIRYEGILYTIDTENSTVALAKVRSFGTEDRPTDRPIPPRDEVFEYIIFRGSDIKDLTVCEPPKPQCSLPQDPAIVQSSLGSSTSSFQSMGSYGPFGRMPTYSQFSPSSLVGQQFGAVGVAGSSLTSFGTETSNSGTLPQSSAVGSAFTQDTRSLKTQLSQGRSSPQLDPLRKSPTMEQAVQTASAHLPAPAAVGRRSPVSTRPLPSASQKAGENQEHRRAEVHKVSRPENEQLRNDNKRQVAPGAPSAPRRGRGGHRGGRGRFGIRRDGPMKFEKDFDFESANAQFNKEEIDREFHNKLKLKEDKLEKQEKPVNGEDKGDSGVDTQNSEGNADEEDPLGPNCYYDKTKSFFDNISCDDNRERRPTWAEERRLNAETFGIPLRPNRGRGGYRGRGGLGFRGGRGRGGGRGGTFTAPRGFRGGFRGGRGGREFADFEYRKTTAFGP
UniProt Q14847: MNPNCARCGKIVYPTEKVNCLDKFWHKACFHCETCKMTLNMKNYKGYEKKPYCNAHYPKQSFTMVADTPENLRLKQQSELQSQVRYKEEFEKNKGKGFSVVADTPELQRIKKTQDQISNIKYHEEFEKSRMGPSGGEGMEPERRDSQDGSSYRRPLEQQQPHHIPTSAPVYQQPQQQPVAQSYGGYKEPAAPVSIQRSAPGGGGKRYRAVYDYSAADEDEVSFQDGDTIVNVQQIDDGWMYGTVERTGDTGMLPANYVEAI
UniProt Q9BRT6: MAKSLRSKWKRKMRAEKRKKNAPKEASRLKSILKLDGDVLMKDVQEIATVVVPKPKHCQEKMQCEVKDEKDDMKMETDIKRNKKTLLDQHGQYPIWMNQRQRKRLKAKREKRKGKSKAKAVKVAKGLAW
UniProt Q8IWT6: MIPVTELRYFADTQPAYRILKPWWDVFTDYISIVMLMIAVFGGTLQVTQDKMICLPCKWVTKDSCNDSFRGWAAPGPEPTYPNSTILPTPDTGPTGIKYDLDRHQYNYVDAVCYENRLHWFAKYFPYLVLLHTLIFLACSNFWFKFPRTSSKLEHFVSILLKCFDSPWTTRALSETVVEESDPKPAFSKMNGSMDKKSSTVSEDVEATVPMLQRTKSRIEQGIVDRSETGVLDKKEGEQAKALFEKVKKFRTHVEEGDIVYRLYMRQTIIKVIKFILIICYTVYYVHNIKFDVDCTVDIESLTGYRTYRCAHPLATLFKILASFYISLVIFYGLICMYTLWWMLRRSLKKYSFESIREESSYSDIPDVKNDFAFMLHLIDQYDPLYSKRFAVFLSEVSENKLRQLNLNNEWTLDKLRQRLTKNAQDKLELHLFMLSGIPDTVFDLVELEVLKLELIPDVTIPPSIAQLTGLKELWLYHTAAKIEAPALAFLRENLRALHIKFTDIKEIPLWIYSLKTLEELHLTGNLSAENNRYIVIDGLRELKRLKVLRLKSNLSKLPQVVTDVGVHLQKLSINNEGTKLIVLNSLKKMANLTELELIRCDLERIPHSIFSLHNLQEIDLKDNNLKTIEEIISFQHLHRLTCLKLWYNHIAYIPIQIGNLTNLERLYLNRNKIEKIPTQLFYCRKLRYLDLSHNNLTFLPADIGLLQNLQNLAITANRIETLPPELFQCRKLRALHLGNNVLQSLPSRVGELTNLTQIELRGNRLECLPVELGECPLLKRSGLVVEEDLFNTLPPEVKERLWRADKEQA
UniProt Q9H9A6: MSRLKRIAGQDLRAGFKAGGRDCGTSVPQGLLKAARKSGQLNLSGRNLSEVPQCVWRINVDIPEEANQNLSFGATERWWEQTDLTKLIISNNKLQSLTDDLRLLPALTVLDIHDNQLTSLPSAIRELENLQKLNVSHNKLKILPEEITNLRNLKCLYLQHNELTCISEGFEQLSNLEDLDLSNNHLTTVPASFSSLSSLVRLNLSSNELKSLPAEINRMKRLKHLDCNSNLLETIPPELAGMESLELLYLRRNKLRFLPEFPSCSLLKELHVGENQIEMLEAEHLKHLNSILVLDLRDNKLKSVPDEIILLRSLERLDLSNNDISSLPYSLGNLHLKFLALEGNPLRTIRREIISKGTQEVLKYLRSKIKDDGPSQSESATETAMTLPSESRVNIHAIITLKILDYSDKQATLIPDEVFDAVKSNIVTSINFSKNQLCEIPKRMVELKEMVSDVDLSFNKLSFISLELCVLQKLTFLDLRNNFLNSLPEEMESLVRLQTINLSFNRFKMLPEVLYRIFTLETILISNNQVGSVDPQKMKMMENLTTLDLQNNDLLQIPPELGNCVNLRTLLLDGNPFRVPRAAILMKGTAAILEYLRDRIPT
UniProt Q68DH5: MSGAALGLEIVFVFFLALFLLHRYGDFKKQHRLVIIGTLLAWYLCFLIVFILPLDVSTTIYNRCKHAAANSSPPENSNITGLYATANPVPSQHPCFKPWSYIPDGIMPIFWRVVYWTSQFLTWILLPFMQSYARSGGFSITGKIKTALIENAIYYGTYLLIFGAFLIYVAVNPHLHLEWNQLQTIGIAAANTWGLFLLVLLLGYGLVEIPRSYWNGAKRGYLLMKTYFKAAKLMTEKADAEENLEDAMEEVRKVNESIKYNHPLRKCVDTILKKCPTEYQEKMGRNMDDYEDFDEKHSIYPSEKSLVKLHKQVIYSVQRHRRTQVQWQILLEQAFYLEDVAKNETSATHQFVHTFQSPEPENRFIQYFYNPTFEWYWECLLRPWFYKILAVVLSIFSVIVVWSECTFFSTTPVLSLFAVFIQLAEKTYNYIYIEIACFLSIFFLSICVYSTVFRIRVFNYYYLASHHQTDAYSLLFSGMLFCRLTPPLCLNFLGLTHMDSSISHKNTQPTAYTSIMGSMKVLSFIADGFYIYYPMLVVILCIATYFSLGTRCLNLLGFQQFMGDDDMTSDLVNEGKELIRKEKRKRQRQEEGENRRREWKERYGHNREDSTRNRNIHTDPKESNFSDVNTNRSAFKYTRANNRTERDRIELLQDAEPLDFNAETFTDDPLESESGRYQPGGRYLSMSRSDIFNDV
UniProt Q9Y4Y9: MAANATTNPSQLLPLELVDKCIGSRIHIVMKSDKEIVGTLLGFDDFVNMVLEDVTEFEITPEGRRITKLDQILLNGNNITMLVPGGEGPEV
UniProt P53671: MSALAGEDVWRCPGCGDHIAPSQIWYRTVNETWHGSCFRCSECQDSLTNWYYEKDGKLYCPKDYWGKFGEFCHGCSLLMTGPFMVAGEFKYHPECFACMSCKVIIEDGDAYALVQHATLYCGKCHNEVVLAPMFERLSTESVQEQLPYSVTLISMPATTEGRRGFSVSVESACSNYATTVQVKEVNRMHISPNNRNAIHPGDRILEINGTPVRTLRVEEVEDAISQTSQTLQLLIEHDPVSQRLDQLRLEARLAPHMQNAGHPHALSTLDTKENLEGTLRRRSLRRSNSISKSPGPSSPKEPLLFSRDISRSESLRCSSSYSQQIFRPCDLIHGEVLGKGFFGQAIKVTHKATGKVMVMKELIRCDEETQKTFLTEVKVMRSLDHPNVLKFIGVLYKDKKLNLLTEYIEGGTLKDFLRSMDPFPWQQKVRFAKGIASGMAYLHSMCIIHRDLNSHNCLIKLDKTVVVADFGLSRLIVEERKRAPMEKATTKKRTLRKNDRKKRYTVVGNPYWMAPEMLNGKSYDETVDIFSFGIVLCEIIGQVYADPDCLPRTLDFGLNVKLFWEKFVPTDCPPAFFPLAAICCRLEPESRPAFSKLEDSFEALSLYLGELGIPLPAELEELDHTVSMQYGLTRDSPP
UniProt Q13094: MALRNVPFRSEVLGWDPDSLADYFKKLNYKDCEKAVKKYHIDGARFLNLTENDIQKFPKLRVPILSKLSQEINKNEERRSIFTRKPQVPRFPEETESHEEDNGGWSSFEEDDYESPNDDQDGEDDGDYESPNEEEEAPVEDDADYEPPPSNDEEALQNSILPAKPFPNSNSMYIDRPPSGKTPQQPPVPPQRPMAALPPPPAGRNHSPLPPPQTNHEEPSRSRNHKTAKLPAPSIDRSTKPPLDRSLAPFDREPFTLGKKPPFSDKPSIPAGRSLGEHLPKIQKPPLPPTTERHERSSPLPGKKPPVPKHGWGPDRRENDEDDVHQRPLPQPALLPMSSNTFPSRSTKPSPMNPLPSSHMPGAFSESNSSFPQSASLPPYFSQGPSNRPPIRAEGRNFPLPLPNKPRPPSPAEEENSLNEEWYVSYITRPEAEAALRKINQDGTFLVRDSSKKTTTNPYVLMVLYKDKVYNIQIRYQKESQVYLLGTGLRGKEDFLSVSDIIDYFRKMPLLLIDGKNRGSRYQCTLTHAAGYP
UniProt Q9H6V9: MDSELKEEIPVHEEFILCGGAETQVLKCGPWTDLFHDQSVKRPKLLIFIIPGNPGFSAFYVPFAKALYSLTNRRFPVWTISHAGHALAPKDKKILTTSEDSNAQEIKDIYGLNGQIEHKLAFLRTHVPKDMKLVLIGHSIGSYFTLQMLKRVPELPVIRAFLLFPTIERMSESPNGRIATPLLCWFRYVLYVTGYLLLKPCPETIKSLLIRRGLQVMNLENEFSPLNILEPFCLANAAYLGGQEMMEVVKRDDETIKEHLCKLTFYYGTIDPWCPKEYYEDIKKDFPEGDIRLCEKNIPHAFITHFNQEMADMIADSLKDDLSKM
UniProt P20700: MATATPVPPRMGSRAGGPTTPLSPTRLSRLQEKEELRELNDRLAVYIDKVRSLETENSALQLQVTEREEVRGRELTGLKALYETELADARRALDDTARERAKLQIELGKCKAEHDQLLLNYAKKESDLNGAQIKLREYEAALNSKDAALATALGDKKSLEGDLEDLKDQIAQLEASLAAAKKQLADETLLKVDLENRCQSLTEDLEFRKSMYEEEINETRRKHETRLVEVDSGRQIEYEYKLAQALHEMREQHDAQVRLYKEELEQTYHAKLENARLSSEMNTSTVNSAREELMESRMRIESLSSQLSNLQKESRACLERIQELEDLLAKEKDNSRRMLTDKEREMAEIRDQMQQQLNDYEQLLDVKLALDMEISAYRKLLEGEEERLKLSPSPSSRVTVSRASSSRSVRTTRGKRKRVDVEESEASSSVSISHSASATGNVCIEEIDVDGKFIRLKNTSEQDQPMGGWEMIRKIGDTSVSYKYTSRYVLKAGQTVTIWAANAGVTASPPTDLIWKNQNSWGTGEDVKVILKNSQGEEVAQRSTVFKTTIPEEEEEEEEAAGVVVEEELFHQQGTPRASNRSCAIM
UniProt Q5TKA1: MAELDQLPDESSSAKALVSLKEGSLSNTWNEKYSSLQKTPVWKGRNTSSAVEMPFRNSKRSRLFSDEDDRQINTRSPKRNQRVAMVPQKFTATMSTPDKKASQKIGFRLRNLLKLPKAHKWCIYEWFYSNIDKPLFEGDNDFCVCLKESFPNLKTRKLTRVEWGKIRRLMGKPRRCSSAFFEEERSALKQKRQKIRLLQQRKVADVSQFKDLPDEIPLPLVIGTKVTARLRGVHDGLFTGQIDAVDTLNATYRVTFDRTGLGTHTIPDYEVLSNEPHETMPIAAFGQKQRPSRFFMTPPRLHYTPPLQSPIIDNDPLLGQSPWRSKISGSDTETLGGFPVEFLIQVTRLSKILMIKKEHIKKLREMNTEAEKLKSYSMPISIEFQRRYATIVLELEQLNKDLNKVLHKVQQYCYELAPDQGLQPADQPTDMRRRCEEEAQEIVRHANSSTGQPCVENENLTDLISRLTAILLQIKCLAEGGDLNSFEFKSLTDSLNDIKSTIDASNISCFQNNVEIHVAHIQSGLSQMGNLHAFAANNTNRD
UniProt Q9UHB6: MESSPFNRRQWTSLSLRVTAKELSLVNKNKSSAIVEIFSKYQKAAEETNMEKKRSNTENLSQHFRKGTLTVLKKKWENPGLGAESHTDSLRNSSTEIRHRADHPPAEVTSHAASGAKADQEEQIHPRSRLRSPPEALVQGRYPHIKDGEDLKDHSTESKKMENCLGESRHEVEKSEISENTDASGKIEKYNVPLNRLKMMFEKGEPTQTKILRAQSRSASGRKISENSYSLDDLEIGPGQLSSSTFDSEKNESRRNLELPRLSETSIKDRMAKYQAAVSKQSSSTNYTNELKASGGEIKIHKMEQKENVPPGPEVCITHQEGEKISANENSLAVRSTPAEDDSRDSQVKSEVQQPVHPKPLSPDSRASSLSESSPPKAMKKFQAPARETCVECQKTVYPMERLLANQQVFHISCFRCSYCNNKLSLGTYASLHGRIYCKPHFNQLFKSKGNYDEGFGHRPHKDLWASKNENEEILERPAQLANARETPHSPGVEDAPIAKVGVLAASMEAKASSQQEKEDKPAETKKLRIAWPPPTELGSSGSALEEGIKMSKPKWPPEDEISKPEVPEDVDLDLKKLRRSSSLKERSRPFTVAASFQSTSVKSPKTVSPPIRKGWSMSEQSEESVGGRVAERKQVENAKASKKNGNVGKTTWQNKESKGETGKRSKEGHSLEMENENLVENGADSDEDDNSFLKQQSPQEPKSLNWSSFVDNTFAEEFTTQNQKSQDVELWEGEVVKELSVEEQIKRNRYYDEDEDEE

Legend:
Experiment in all cases: log2 fold change, soluble protein after heating vs DMSO (PISA); higher = thermal stabilisation; K562 lysate, 10 uM; active = over 0.2 and 3.5 SD of the protein, either way, in both replicates (recomputed)
lapatinib = compound: CS(=O)(=O)CCNCc1ccc(-c2ccc3ncnc(Nc4ccc(OCc5cccc(F)c5)c(Cl)c4)c3c2)o1 [lapatinib]
In short: (§1)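 To prepare the extract, K562 pellets were dounce-homogenised in PBS pH 7.4 with 1 mM MgCl2, giving crude material at 1 mg/mL protein. This was treated with 10 μM compound for 30 min, then heated in aliquots for 3 min over 48°C-58°C before pooling and addition of NP-40 to 0.5% at 4°C. Centrifugation at 21,000xg for 90 min left soluble protein in the supernatant, which TMTpro 16plex LC-MS/MS quantified with equalised channel sums. Results are log-two fold changes in thermal stability compared with solvent controls, from duplicates.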

pictilisib = compound: CS(=O)(=O)N1CCN(Cc2cc3nc(-c4cccc5[nH]ncc45)nc(N4CCOCC4)c3s2)CC1 [pictilisib]
In short: as §1

crizotinib = compound: C[C@@H](Oc1cc(-c2cnn(C3CCNCC3)c2)cnc1N)c1c(Cl)ccc(F)c1Cl [crizotinib]
In short: as §1

[1] = compound: C[C@H](C1=CC=C(C=C1)C(=O)NC2=C3C=CNC3=NC=C2)N
In short: as §1

duvelisib = compound: C[C@H](Nc1ncnc2nc[nH]c12)c1cc2cccc(Cl)c2c(=O)n1-c1ccccc1 [duvelisib]
In short: as §1

gandotinib = compound: Cc1cc(Nc2cc(CN3CCOCC3)c3nc(C)c(Cc4ccc(Cl)cc4F)n3n2)n[nH]1 [gandotinib]
In short: as §1

tozasertib = compound: Cc1cc(Nc2cc(N3CCN(C)CC3)nc(Sc3ccc(NC(=O)C4CC4)cc3)n2)n[nH]1 [tozasertib]
In short: as §1

doramapimod = compound: Cc1ccc(-n2nc(C(C)(C)C)cc2NC(=O)Nc2ccc(OCCN3CCOCC3)c3ccccc23)cc1 [doramapimod]
In short: as §1

bafetinib = compound: Cc1ccc(NC(=O)c2ccc(CN3CC[C@H](N(C)C)C3)c(C(F)(F)F)c2)cc1Nc1nccc(-c2cncnc2)n1 [bafetinib]
In short: as §1

[2] = compound: Cc1cccc(CC(=O)N2CCc3c2ccc(-c2cn(C)c4ncnc(N)c24)c3F)n1
In short: as §1

Measured: log2 fold change

LSM7 (UniProt Q9UK45)
inactive: lapatinib 0.02 | pictilisib 0.029 | crizotinib 0.033 | [1] -0.072 | duvelisib 0.033 | gandotinib 0.026 | tozasertib 0.051 | doramapimod -0.014 | bafetinib -0.067 | [2] 0.063

LDB1 (UniProt Q86U70)
inactive: lapatinib -0.019 | pictilisib 0.02 | crizotinib 0.018 | [1] -0.039 | duvelisib 0.054 | gandotinib 0.066 | tozasertib -0.111 | doramapimod 0.021 | bafetinib -0.011 | [2] 0.044

LPIN2 (UniProt Q92539)
inactive: lapatinib 0.013 | pictilisib 0.007 | crizotinib -0.027 | [1] 0.003 | duvelisib 0.005 | gandotinib -0.056 | tozasertib -0.04 | doramapimod -0.008 | bafetinib -0.008 | [2] 0.04

LCOR isoform 3 (UniProt Q96JN0)
inactive: lapatinib -0.119

LIMK1 (UniProt P53667)
inactive: lapatinib 0.049 | pictilisib -0.087 | crizotinib 0.276 | [1] 0.029 | duvelisib 0.109 | gandotinib -0.03 | tozasertib 0.096 | doramapimod -0.009 | bafetinib -0.348 | [2] 0.138

LSM14A isoform 2 (UniProt Q8ND56)
inactive: lapatinib -0.035 | pictilisib -0.003 | crizotinib 0.089 | [1] -0.015 | duvelisib -0.022 | gandotinib 0.048 | tozasertib 0.018 | doramapimod -0.021 | bafetinib 0.038 | [2] -0.006

LENG1 (UniProt Q96BZ8)
inactive: lapatinib 0.041 | pictilisib 0.045 | crizotinib -0.026 | [1] -0.076 | duvelisib -0.025 | gandotinib 0.079 | tozasertib 0 | doramapimod 0.035 | bafetinib -0.041 | [2] 0.007

LSR (UniProt Q86X29)
inactive: lapatinib -0.023 | pictilisib 0.02 | crizotinib 0.017 | [1] -0.033 | duvelisib -0.001 | gandotinib 0.034 | tozasertib 0.022 | doramapimod -0.025 | bafetinib 0.072 | [2] 0.033

LASP1 (UniProt Q14847)
inactive: lapatinib 0.004 | pictilisib -0.005 | crizotinib 0.032 | [1] -0.017 | duvelisib 0.006 | gandotinib 0.045 | tozasertib -0.01 | doramapimod -0.018 | bafetinib 0.024 | [2] -0.014

LLPH (UniProt Q9BRT6)
inactive: lapatinib -0.049 | pictilisib 0.093 | crizotinib 0.114 | [1] 0.198 | duvelisib 0.06 | gandotinib -0.094 | tozasertib 0.103 | doramapimod -0.004 | bafetinib 0.088 | [2] -0.109

LRRC8A (UniProt Q8IWT6)
inactive: lapatinib -0.044 | pictilisib -0.001 | crizotinib 0.035 | [1] 0.079 | duvelisib 0.031 | gandotinib -0.046 | tozasertib -0.077 | doramapimod -0.051 | bafetinib -0.04 | [2] 0

LEO1 (UniProt Q8WVC0)
inactive: lapatinib -0.01 | pictilisib -0.019 | crizotinib 0.008 | [1] -0.005 | duvelisib -0.008 | gandotinib 0.019 | tozasertib -0.033 | doramapimod 0.023 | bafetinib -0.012 | [2] 0.025

LDLR (UniProt P01130)
inactive: lapatinib -0.018 | pictilisib -0.01 | crizotinib 0.006 | [1] 0.05 | duvelisib -0.005 | gandotinib -0.034 | tozasertib -0.009 | doramapimod -0.017 | bafetinib 0.08 | [2] -0.013

LPIN3 isoform 2 (UniProt Q9BQK8)
inactive: lapatinib -0.038 | pictilisib -0.036 | crizotinib -0.062 | [1] 0.004 | duvelisib -0.017 | gandotinib -0.044 | tozasertib 0.045 | doramapimod -0.025 | bafetinib 0.049 | [2] -0.034

LIG3 (UniProt P49916)
inactive: lapatinib -0.007 | pictilisib 0.006 | crizotinib -0.044 | [1] -0.008 | duvelisib 0.01 | gandotinib -0.05 | tozasertib -0.004 | doramapimod 0.016 | bafetinib -0.046 | [2] 0.016

LBR (UniProt Q14739)
inactive: lapatinib -0.071 | pictilisib -0.068 | crizotinib 0.063 | [1] 0.159 | duvelisib -0.039 | tozasertib -0.003 | doramapimod -0.06 | bafetinib -0.114 | [2] -0.096
active: gandotinib -0.285

LRRC40 (UniProt Q9H9A6)
inactive: lapatinib -0.004 | pictilisib -0.012 | crizotinib -0.007 | [1] 0.015 | duvelisib -0.025 | gandotinib -0.088 | tozasertib 0.014 | doramapimod 0.009 | bafetinib -0.028 | [2] -0.032

LRBA (UniProt P50851)
inactive: lapatinib 0.003 | pictilisib -0.012 | crizotinib -0.025 | [1] -0.049 | duvelisib 0 | gandotinib 0.023 | tozasertib 0.005 | doramapimod 0.01 | bafetinib -0.052 | [2] 0.074

LMBRD2 (UniProt Q68DH5)
inactive: lapatinib -0.037 | pictilisib -0.012 | crizotinib -0.056 | [1] 0.035 | duvelisib 0.018 | gandotinib 0.025 | tozasertib 0.016 | doramapimod 0.019 | bafetinib 0.002 | [2] -0.009

LSM5 (UniProt Q9Y4Y9)
inactive: lapatinib -0.193 | pictilisib 0.005 | crizotinib -0.086 | [1] 0.219 | duvelisib 0.028 | gandotinib -0.06 | tozasertib 0.124 | doramapimod 0.067 | bafetinib 0.071 | [2] -0.102

LSM2 (UniProt Q9Y333)
inactive: lapatinib -0.021 | pictilisib 0.009 | crizotinib -0.004 | [1] -0.082 | duvelisib 0.024 | gandotinib 0.006 | tozasertib 0.041 | doramapimod -0.026 | bafetinib -0.021 | [2] -0.009

LCMT2 (UniProt O60294)
inactive: lapatinib 0.052 | pictilisib -0.042 | crizotinib -0.149 | [1] -0.006 | duvelisib 0 | gandotinib 0.017 | tozasertib 0.034 | doramapimod -0.133 | bafetinib -0.121 | [2] -0.045

LGALS1 (UniProt P09382)
inactive: lapatinib 0.029 | pictilisib 0.029 | crizotinib 0.017 | [1] 0.03 | duvelisib 0.013 | gandotinib -0.016 | tozasertib 0.009 | doramapimod 0.01 | bafetinib 0.055 | [2] 0.012

LIMK2 isoform 3 (UniProt P53671)
inactive: lapatinib 0.029 | pictilisib 0.112 | crizotinib -0.138 | duvelisib -0.035 | gandotinib -0.144 | tozasertib 0.01 | doramapimod 0.109 | bafetinib -0.108 | [2] -0.037
active: [1] 0.626

LRRC57 (UniProt Q8N9N7)
inactive: lapatinib 0.007 | pictilisib -0.002 | crizotinib 0.034 | [1] -0.016 | duvelisib -0.007 | gandotinib 0.037 | tozasertib 0.01 | doramapimod 0.053 | bafetinib 0.028 | [2] 0.057

LCP2 (UniProt Q13094)
inactive: lapatinib 0.004 | pictilisib 0.003 | crizotinib 0.003 | [1] 0.036 | duvelisib -0.088 | gandotinib 0.001 | tozasertib 0.014 | doramapimod 0.02 | bafetinib -0.027 | [2] -0.048

LDAH isoform 2 (UniProt Q9H6V9)
inactive: lapatinib 0.014 | pictilisib 0.006 | crizotinib -0.062 | [1] -0.016 | duvelisib 0.008 | gandotinib -0.036 | tozasertib 0.06 | doramapimod 0.021 | bafetinib -0.01 | [2] 0.143

LMNB1 (UniProt P20700)
inactive: lapatinib 0.008 | pictilisib -0.029 | crizotinib -0.007 | [1] -0.075 | duvelisib 0.008 | gandotinib -0.029 | tozasertib 0.018 | doramapimod 0.021 | bafetinib -0.035 | [2] 0.013

LONP1 (UniProt P36776)
inactive: lapatinib -0.046 | pictilisib -0.002 | crizotinib 0.052 | [1] -0.016 | duvelisib -0.01 | gandotinib -0.018 | tozasertib 0.024 | doramapimod -0.039 | bafetinib 0.002 | [2] -0.033

LIN9 isoform 2 (UniProt Q5TKA1)
inactive: lapatinib 0.043 | pictilisib 0.064 | crizotinib -0.026 | [1] -0.004 | duvelisib -0.012 | gandotinib -0.086 | tozasertib 0.053 | doramapimod 0.014 | bafetinib -0.017 | [2] -0.015

LIMA1 isoform 4 (UniProt Q9UHB6)
inactive: lapatinib -0.024 | pictilisib -0.006 | crizotinib 0.02 | [1] 0.029 | duvelisib 0.009 | gandotinib -0.02 | tozasertib -0.037 | doramapimod -0.031 | bafetinib -0.031 | [2] -0.045

Taken from above (6 entries):
LEO1 (UniProt Q8WVC0)
inactive: lapatinib -0.01 | pictilisib -0.019 | crizotinib 0.008 | [1] -0.005 | duvelisib -0.008 | gandotinib 0.019 | tozasertib -0.033 | doramapimod 0.023 | bafetinib -0.012 | [2] 0.025

LDLR (UniProt P01130)
inactive: lapatinib -0.018 | pictilisib -0.01 | crizotinib 0.006 | [1] 0.05 | duvelisib -0.005 | gandotinib -0.034 | tozasertib -0.009 | doramapimod -0.017 | bafetinib 0.08 | [2] -0.013

LPIN3 isoform 2 (UniProt Q9BQK8)
inactive: lapatinib -0.038 | pictilisib -0.036 | crizotinib -0.062 | [1] 0.004 | duvelisib -0.017 | gandotinib -0.044 | tozasertib 0.045 | doramapimod -0.025 | bafetinib 0.049 | [2] -0.034

LIG3 (UniProt P49916)
inactive: lapatinib -0.007 | pictilisib 0.006 | crizotinib -0.044 | [1] -0.008 | duvelisib 0.01 | gandotinib -0.05 | tozasertib -0.004 | doramapimod 0.016 | bafetinib -0.046 | [2] 0.016

LBR (UniProt Q14739)
inactive: lapatinib -0.071 | pictilisib -0.068 | crizotinib 0.063 | [1] 0.159 | duvelisib -0.039 | tozasertib -0.003 | doramapimod -0.06 | bafetinib -0.114 | [2] -0.096
active: gandotinib -0.285

LRRC40 (UniProt Q9H9A6)
inactive: lapatinib -0.004 | pictilisib -0.012 | crizotinib -0.007 | [1] 0.015 | duvelisib -0.025 | gandotinib -0.088 | tozasertib 0.014 | doramapimod 0.009 | bafetinib -0.028 | [2] -0.032
